Test results from publication doi:10.1101/2024.09.26.615147.
No constants are given. Whether binding was seen depends on the method and setting. In cells and extracts the contact can be indirect. Some results given as binding are weak or reduced against the parent protein; the word gives no strength.

Sequences of proteins named here, by UniProt entry; tags and fusion partners are left off. A change or cut given only in a name is not applied to a line headed by its entry. A line that says so, or that is headed by a name, gives the form on record, which may keep a tag or linker. Residues count along the entry.
UniProt P0A705: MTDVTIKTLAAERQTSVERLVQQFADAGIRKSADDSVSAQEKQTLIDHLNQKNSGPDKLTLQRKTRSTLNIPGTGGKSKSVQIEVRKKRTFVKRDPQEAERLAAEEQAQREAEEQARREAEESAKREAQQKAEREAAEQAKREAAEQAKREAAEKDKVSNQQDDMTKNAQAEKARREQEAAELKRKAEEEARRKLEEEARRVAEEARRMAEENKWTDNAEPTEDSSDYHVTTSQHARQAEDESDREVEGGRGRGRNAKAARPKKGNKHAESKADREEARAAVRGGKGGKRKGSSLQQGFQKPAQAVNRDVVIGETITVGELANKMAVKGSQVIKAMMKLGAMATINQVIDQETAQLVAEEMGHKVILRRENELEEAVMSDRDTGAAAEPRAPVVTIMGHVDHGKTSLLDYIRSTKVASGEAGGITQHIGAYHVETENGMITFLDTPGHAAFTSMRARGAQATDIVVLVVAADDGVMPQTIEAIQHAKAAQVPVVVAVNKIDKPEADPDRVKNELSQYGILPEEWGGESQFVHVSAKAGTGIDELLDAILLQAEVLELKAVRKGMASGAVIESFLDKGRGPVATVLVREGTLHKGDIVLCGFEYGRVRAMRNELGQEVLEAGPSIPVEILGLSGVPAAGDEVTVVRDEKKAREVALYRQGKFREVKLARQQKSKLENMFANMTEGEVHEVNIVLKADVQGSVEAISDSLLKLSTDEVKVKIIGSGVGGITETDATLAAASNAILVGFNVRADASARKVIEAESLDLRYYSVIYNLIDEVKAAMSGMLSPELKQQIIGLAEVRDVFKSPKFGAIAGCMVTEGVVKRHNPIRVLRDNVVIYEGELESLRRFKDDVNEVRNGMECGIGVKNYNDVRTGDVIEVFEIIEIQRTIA
6His-IF2γ (translation initiation factor IF2, isoform γ, polyhistidine-tagged): residues 165-890 of P0A705

How the values were obtained:
[1] = target: 6His-IF2γ (translation initiation factor IF2, isoform γ, polyhistidine-tagged) (E. coli) (UniProt P0A705); assay: pull-down
[2] = target: 6His-IF2α (translation initiation factor IF2, isoform α, polyhistidine-tagged) (E. coli) (UniProt P0A705); assay: pull-down

NusA-HaloTag (transcription factor NusA with HaloTag fused at the chromosomal locus) (from UniProt P0AFF6 1-495)
binding [1]: no binding
binding [2]: binds
